# PMC7819943, “Rice protein-binding microarrays: a tool to detect cis-acting elements near promoter regions in rice”
# Some of the results follow.
# Target: T1, OsSMF1 (Oryza sativa, UniProt Q6ZLB0 1-436)
# T1 sequence: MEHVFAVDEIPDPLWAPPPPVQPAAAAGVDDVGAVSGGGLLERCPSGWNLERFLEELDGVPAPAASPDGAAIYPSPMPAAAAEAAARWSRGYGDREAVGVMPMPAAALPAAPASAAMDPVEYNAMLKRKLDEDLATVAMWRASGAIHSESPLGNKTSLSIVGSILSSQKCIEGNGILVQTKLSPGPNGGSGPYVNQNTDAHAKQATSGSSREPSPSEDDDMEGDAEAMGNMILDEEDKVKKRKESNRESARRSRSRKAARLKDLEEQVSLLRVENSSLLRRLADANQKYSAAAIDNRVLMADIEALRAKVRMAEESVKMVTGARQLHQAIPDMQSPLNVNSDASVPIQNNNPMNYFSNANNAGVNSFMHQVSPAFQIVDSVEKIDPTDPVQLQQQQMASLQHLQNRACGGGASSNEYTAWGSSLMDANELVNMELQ
# Assay: protein-binding microarray (RPBM); PBS, 2% BSA, 51.3 ng/ul salmon testes DNA, 50 uM zinc acetate, 200 nM TF, 25 C, 1 h; high values mean tight binding
# Conditions: protein: recombinant; tags: N-terminal polyhistidine and DsRed monomer fusion (pET32a); chain copies: 2; label: CyDye5-dUTP incorporated in the synthesized complementary strand; 3' TTTTT single-stranded linker to array surface; dsDNA, one strand shown
# Method in brief: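 For the binding signal, per-feature fluorescence intensity was read in arbitrary units on an Axon 4000B scanner. Before scanning, a 2% BSA-blocked custom Agilent array made double-stranded with Cy5-dUTP was washed after 1 h at 25 °C with 200 nM protein and 50 µM zinc acetate. The proteins were Ni–NTA-purified transcription factors with N-terminal polyhistidine and DsRed fusions, expressed in E. coli BL21-CodonPlus.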
row,Sequence,binding signal
1,TTCTAAGTTGGGGATGTGTTGTATCCGATTTTACGGTCCACGGAGTCACCTAGTGCAG,4150 fluorescence intensity (a.u.)
2,AAACAAAAGTGACATGTCTCCATAAGGTTATCAACTTGTTCGGAGTCACCTAGTGCAG,4390 fluorescence intensity (a.u.)
3,CTTCCCACCCATGGTGGGAATGTGTGATGGCACCTGGTGACGGAGTCACCTAGTGCAG,4290 fluorescence intensity (a.u.)
4,TTTGTTGATTAGCTGATCTGGCTAGCTAGTTGAAATTGAACGGAGTCACCTAGTGCAG,3480 fluorescence intensity (a.u.)
5,ACGCACAGAGCCACGCTACTCTCCCCACCCAGATTCCACCCGGAGTCACCTAGTGCAG,3320 fluorescence intensity (a.u.)
6,GGTCCATCCCAGCCGTCGGATCCCCAGGCGGTGGCAGGGGCGGAGTCACCTAGTGCAG,19400 fluorescence intensity (a.u.)
7,GGTGGGGCCCTGTAGCGAGCAAGCCAAATGGGAGAACACCCGGAGTCACCTAGTGCAG,3390 fluorescence intensity (a.u.)
8,GATTACATGTAGACTATTTATCTACGTGGACAAAATCTCTCGGAGTCACCTAGTGCAG,13100 fluorescence intensity (a.u.)
9,AAATTGGCAGCCAAACTGGTGAGAAAATAGCCTGGAATTGCGGAGTCACCTAGTGCAG,18900 fluorescence intensity (a.u.)
10,TGTTGCTCTGCTTGGCCCACTAATGAACTTGTATGGGCCCCGGAGTCACCTAGTGCAG,5960 fluorescence intensity (a.u.)
11,CAAAGGCGCCGCCTCGTGCACCAGCTCATCCATTCCCACTCGGAGTCACCTAGTGCAG,4440 fluorescence intensity (a.u.)
12,CAAGAACCCAACCGCCAATGATCACACGCCACGTCGCCCCCGGAGTCACCTAGTGCAG,10200 fluorescence intensity (a.u.)
13,CATCGCCGACGACAAGTACCCATCCTTGCCACCGTCGCCGCGGAGTCACCTAGTGCAG,3860 fluorescence intensity (a.u.)
14,GCACGGCTGGGCGACGGCTGGTGTGACGCTGCGGAGTTCGCGGAGTCACCTAGTGCAG,4820 fluorescence intensity (a.u.)
15,GGCGCGCAGGTGGGACGATGTGGCACCGCGCGCTTGCTTCCGGAGTCACCTAGTGCAG,4170 fluorescence intensity (a.u.)
16,ACAGCAAGGCGTGCGTGGCATCATACCCATGCGTGGTGCACGGAGTCACCTAGTGCAG,9650 fluorescence intensity (a.u.)
17,ACGGCCCCACCGCCGCCGCATCATCCACCGTCCGTTCCCGCGGAGTCACCTAGTGCAG,4640 fluorescence intensity (a.u.)
18,ACCCCTAAAGCGCAAGACATGTCATCCATGAGTCATAGTGCGGAGTCACCTAGTGCAG,13400 fluorescence intensity (a.u.)
19,CTGCCGCGCCATCGCGCCACGTCGCCTCGTCTTGCCTCGCCGGAGTCACCTAGTGCAG,12000 fluorescence intensity (a.u.)
20,TAGGCTGGCCACTGGCTGGGCCTTTGAGCTTGGTCAGCTGCGGAGTCACCTAGTGCAG,3160 fluorescence intensity (a.u.)
21,TTGCTTCATAGGGAATTAGGGATTGACCAAAGTCGAACTCCGGAGTCACCTAGTGCAG,3560 fluorescence intensity (a.u.)

row,Sequence,binding signal
1,CCTTCCGCCACGACGCCGTCGTGTGCTCCGTCGTCCAGGCCGGAGTCACCTAGTGCAG,4750 fluorescence intensity (a.u.)
2,AGAGGGTGGAGGAGCTGACTAGATTGCACTAGGTCTCGATCGGAGTCACCTAGTGCAG,42000 fluorescence intensity (a.u.)
3,CCACTGCTACGCCGGCAATGGCCGCCCGCCACTGACGTGCCGGAGTCACCTAGTGCAG,3670 fluorescence intensity (a.u.)
4,AAACCCCACGCCACCCACCACCTTCAACGTTAGACCCACGCGGAGTCACCTAGTGCAG,3220 fluorescence intensity (a.u.)
5,CTTAAAGGGCAGAAAAGACATACGTTTCCTTTAACCAAACCGGAGTCACCTAGTGCAG,3210 fluorescence intensity (a.u.)
6,GTGATAGTTTTGTTCTGCCACGCCAGCTAGAGTGGCGTGGCGGAGTCACCTAGTGCAG,7410 fluorescence intensity (a.u.)
7,CAAGCGCGACGTCCCAACGGGCGAAGCGCGGCAGCCGTCTCGGAGTCACCTAGTGCAG,32900 fluorescence intensity (a.u.)
8,GCAGCCGGACCGTCACGTTGCTTGCGCTGTTGGCTGTTGCCGGAGTCACCTAGTGCAG,3220 fluorescence intensity (a.u.)
9,GCCCCTAGAGTTGAGATGCAGAATGCCGTGCTAGGGTTGTCGGAGTCACCTAGTGCAG,3980 fluorescence intensity (a.u.)
10,CCGCGGCCACCTGGCCTACCTCGCCTCTCCCGTGGGCCCCCGGAGTCACCTAGTGCAG,3240 fluorescence intensity (a.u.)
11,TGACTACGGATGCAAGCGGGCCAACCCGCGGGTCTGTTTACGGAGTCACCTAGTGCAG,20300 fluorescence intensity (a.u.)
12,CATATAAAAGCCCGTGCAATGCACGGGCTGATGACTAGTACGGAGTCACCTAGTGCAG,3510 fluorescence intensity (a.u.)
13,TAGATTAGCTTATCAATGATTTGTTGCAAAATATCACACGCGGAGTCACCTAGTGCAG,21100 fluorescence intensity (a.u.)
14,AGGCGCTCCATAGGCCTCGTCATCTTCACAGTCACACACCCGGAGTCACCTAGTGCAG,7450 fluorescence intensity (a.u.)
15,CTTGGCCGTGGCCGCTGACATGGCATCACCTCATCCGCAACGGAGTCACCTAGTGCAG,4320 fluorescence intensity (a.u.)
16,TGCTGTTGGGTTGTGAACTAAACTTAAAGTGCATGTTTATCGGAGTCACCTAGTGCAG,3570 fluorescence intensity (a.u.)
17,GTAAGTTTTCCACTCATACTTACTGGTTCTACTTGATCTTCGGAGTCACCTAGTGCAG,3230 fluorescence intensity (a.u.)
18,AGTTATTTCCTAATTGTATTTCTATATGGACTCTAGCCTCCGGAGTCACCTAGTGCAG,23500 fluorescence intensity (a.u.)
19,AATTTTATCTCTGGTCTTCTATGGACCAAAAGTGACGTGGCGGAGTCACCTAGTGCAG,16700 fluorescence intensity (a.u.)
20,GAGAGGAGGAAGGGAGAGTAACGTGGCGTCCTGACATGTGCGGAGTCACCTAGTGCAG,6930 fluorescence intensity (a.u.)
21,TTACTTTCCAGTCCAATTTCCAAGCTACCACGGTATTTATCGGAGTCACCTAGTGCAG,7880 fluorescence intensity (a.u.)

# At a glance, some entries already given:
row,Sequence,binding signal
2,AGAGGGTGGAGGAGCTGACTAGATTGCACTAGGTCTCGATCGGAGTCACCTAGTGCAG,42000 fluorescence intensity (a.u.)
3,CCACTGCTACGCCGGCAATGGCCGCCCGCCACTGACGTGCCGGAGTCACCTAGTGCAG,3670 fluorescence intensity (a.u.)
4,AAACCCCACGCCACCCACCACCTTCAACGTTAGACCCACGCGGAGTCACCTAGTGCAG,3220 fluorescence intensity (a.u.)
5,CTTAAAGGGCAGAAAAGACATACGTTTCCTTTAACCAAACCGGAGTCACCTAGTGCAG,3210 fluorescence intensity (a.u.)
